Measurements reported in PubChem BioAssay AID1224830 (NIAID, 2016)

- Purpose: 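Genes whose knock-down alters the TNF-alpha reporter response to LPS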 (primary screen)
- Cells: human THP-1 monocytic leukaemia cells, TNF dual-luciferase reporter clone, PMA-differentiated to macrophage-like cells
- Reagent: siRNA pool against human genes, 50 nM
- Timing: LPS for 4 h, given about 3 days after siRNA transfection
- Treatment: bacterial LPS (TLR4 ligand), 10 ng/ml
- Read-out: 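TNF firefly reporter luminescence divided by renilla, normalised to the plate median, then turned into a robust z-score for each replicate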
- Direction: TNF reporter robust z-score: higher = stronger TNF reporter response to LPS
- Hit rule: 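Each well counts as active if its z-score is over 2.8 or under -1.5; controls are left without a call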
In all, the deposit lists about 18,000 reagents; this is a part drawn at random. About 2,900 of them (16%) were called active. 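Calls are made per well; low scores hint the gene aids the LPS response, high scores that it dampens it.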 Unmarked entries are inactive. Repeated entries: four replicate wells of each siRNA pool.

SCAP (SREBF chaperone) — TNF reporter robust z-score = -0.03
SCAP (SREBF chaperone) — TNF reporter robust z-score = 0.43
SCAP (SREBF chaperone) — TNF reporter robust z-score = -0.2
SCAP (SREBF chaperone) — TNF reporter robust z-score = -0.55
ZDHHC4 (zDHHC palmitoyltransferase 4) — TNF reporter robust z-score = -1.77 (active)
ZDHHC4 (zDHHC palmitoyltransferase 4) — TNF reporter robust z-score = -1.48
ZDHHC4 (zDHHC palmitoyltransferase 4) — TNF reporter robust z-score = -1.71 (active)
CCDC14 (coiled-coil domain containing 14) — TNF reporter robust z-score = 0.12
CCDC14 (coiled-coil domain containing 14) — TNF reporter robust z-score = 0.03
CCDC14 (coiled-coil domain containing 14) — TNF reporter robust z-score = 0.49
CCDC14 (coiled-coil domain containing 14) — TNF reporter robust z-score = 0.19
ADCY4 (adenylate cyclase 4) — TNF reporter robust z-score = 0.88
ADCY4 (adenylate cyclase 4) — TNF reporter robust z-score = -0.42
ADCY4 (adenylate cyclase 4) — TNF reporter robust z-score = 1.07
ADCY4 (adenylate cyclase 4) — TNF reporter robust z-score = 0.45
G2E3 (G2/M-phase specific E3 ubiquitin protein ligase) — TNF reporter robust z-score = -0.73
G2E3 (G2/M-phase specific E3 ubiquitin protein ligase) — TNF reporter robust z-score = 1.78
G2E3 (G2/M-phase specific E3 ubiquitin protein ligase) — TNF reporter robust z-score = -1.57 (active)
G2E3 (G2/M-phase specific E3 ubiquitin protein ligase) — TNF reporter robust z-score = 3.41 (active)
CENPS (centromere protein S) — TNF reporter robust z-score = -0.37
CENPS (centromere protein S) — TNF reporter robust z-score = -1.39
CENPS (centromere protein S) — TNF reporter robust z-score = -0.5
CENPS (centromere protein S) — TNF reporter robust z-score = 0.55
CLVS2 (clavesin 2) — TNF reporter robust z-score = -0.63
CLVS2 (clavesin 2) — TNF reporter robust z-score = -0.06
CLVS2 (clavesin 2) — TNF reporter robust z-score = -0.69
CLVS2 (clavesin 2) — TNF reporter robust z-score = -0.85
SELENOT (selenoprotein T) — TNF reporter robust z-score = 1.06
SELENOT (selenoprotein T) — TNF reporter robust z-score = 0.72
SELENOT (selenoprotein T) — TNF reporter robust z-score = 1.52
SELENOT (selenoprotein T) — TNF reporter robust z-score = 0.66
ME1 (malic enzyme 1) — TNF reporter robust z-score = -0.17
ME1 (malic enzyme 1) — TNF reporter robust z-score = 0.29
ME1 (malic enzyme 1) — TNF reporter robust z-score = 0.16
ME1 (malic enzyme 1) — TNF reporter robust z-score = 0.58
KIZ (kizuna centrosomal protein) — TNF reporter robust z-score = -1.04
KIZ (kizuna centrosomal protein) — TNF reporter robust z-score = 0.27
KIZ (kizuna centrosomal protein) — TNF reporter robust z-score = 0.46
KIZ (kizuna centrosomal protein) — TNF reporter robust z-score = 0.67
ARMC5 (armadillo repeat containing 5) — TNF reporter robust z-score = 1.88
ARMC5 (armadillo repeat containing 5) — TNF reporter robust z-score = 1.86
ARMC5 (armadillo repeat containing 5) — TNF reporter robust z-score = 1.34
ARMC5 (armadillo repeat containing 5) — TNF reporter robust z-score = 1.24
GPKOW (G-patch domain and KOW motifs) — TNF reporter robust z-score = -0.82
GPKOW (G-patch domain and KOW motifs) — TNF reporter robust z-score = -0.54
GPKOW (G-patch domain and KOW motifs) — TNF reporter robust z-score = -0.83
GPKOW (G-patch domain and KOW motifs) — TNF reporter robust z-score = -0.91
GNRH1 (gonadotropin releasing hormone 1) — TNF reporter robust z-score = 1.38
GNRH1 (gonadotropin releasing hormone 1) — TNF reporter robust z-score = 0.91
GNRH1 (gonadotropin releasing hormone 1) — TNF reporter robust z-score = 0.41
GNRH1 (gonadotropin releasing hormone 1) — TNF reporter robust z-score = 0.39
CRYBB1 (crystallin beta B1) — TNF reporter robust z-score = 0.09
CRYBB1 (crystallin beta B1) — TNF reporter robust z-score = 1.2
CRYBB1 (crystallin beta B1) — TNF reporter robust z-score = 1.47
CRYBB1 (crystallin beta B1) — TNF reporter robust z-score = 0.98
TMEM25 (transmembrane protein 25) — TNF reporter robust z-score = -1.45
TMEM25 (transmembrane protein 25) — TNF reporter robust z-score = -0.24
TMEM25 (transmembrane protein 25) — TNF reporter robust z-score = 0.92
TMEM25 (transmembrane protein 25) — TNF reporter robust z-score = 0.46
CYFIP1 (cytoplasmic FMR1 interacting protein 1) — TNF reporter robust z-score = -0.2
CYFIP1 (cytoplasmic FMR1 interacting protein 1) — TNF reporter robust z-score = 2.13
CYFIP1 (cytoplasmic FMR1 interacting protein 1) — TNF reporter robust z-score = 0.47
CYFIP1 (cytoplasmic FMR1 interacting protein 1) — TNF reporter robust z-score = 0.53
